Measured values taken from doi:10.1101/2024.03.08.584044.
These are yes or no findings as the source states them, for the method shown. Binding seen in cells or lysates may run through a third protein. Binding can be weak; no strength is given.

Biological target: Exo70 (endogenous, MDBK cells) (bovine (endogenous in MDBK))
Experiment: co-IP

B1: Rab11a (endogenous, MDBK cells) (protein, UniProt Q2TA29 1-216)
chain: MGTRDDEYDYLFKVVLIGDSGVGKSNLLSRFTRNEFNLESKSTIGVEFATRSIQVDGKTIKAQIWDTAGQERYRAITSAYYRGAVGALLVYDIAKHLTYENVERWLKELRDHADSNIVIMLVGNKSDLRHLRAVPTDEARAFAEKNGLSFIETSALDYTNVEAAFQTILTEIYRIVSQKQMSDRRENDMSPSNNVVPIHVPPTTENKPKVQCCQNI
For B1, the binding was “binds”.
